Results taken from article PMC10183829, “Shuffled ATG8 interacting motifs form an ancestral bridge between UFMylation and autophagy” (The EMBO Journal, 2023).
Results are given in words; binding and its absence hold for the method and conditions named. Binding can be weak; no strength is given.

By UniProt entry, the sequences of proteins in these tests, tags left out. Where a name states a change or a piece, a line headed by the entry shows the natural chain unless it says otherwise.
UniProt Q9FG23: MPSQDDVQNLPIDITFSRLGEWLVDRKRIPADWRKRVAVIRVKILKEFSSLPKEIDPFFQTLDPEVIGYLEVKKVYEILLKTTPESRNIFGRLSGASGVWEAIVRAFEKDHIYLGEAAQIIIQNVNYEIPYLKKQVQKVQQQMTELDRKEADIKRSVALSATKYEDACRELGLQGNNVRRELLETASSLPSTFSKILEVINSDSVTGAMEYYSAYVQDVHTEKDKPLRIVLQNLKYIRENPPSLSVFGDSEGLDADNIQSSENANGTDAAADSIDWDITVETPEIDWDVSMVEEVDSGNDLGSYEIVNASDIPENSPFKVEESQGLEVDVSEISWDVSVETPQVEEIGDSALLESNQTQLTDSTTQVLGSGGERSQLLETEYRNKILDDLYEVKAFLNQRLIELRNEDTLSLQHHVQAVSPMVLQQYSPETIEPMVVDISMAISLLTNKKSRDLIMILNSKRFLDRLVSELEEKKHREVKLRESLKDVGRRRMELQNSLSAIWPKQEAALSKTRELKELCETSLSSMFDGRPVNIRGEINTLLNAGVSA

Columns and labels:
[1] = molecular target: AtC53 IDR (264-341) (Arabidopsis thaliana) (UniProt Q9FG23); assay: NMR titration; unlabeled protein or peptide (50-300 μM) added to 100 μM 15N-labeled protein; 1H-15N HSQC, 25°C, 50 mM sodium phosphate pH 7.0, 100 mM NaCl, 10% D2O; both purified
[2] = molecular target: AtUFM1 (purified) (Arabidopsis thaliana); assay: as above

B1: ATG8A (purified) (protein, UniProt Q8LEM4 1-117)
chain: MAKSSFKISNPLEARMSESSRIREKYPDRIPVIVEKAGQSDVPDIDKKKYLVPADLTVGQFVYVVRKRIKLGAEKAIFVFVKNTLPPTAALMSAIYEEHKDEDGFLYMTYSGENTFG
Question: With B1 as the binder, how does the binding [1] read?
Answer: binds

Question: Which binding [2] does the source give for GPLHDDNEWNISVVDD [AtUBA5 LIR peptide] here?
Answer: binds
